{"sequences": {"note": "Amino acid sequences for entries named in this document (tags omitted).", "UniProt Q8NER1, whole entry, looked up": "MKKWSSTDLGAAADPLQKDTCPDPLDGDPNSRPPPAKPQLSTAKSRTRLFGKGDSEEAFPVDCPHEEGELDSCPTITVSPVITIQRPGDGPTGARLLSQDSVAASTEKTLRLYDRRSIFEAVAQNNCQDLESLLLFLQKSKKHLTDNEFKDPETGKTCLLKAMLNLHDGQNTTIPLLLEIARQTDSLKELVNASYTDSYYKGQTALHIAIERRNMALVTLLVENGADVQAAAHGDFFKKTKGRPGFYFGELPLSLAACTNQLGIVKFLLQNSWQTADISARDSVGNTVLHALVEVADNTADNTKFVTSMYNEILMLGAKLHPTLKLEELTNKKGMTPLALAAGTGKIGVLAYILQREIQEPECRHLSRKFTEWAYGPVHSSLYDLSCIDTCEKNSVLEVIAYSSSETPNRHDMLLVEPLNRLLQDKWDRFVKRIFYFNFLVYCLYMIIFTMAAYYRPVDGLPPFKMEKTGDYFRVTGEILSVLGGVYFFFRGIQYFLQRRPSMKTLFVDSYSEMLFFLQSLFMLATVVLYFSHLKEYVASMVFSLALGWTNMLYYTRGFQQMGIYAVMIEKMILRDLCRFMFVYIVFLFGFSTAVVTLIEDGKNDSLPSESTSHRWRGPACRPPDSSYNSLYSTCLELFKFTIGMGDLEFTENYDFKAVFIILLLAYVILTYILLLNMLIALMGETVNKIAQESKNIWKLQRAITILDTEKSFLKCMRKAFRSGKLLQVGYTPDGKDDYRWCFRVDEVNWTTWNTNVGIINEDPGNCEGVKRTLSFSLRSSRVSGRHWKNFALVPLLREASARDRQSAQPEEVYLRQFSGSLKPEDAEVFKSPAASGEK"}, "source": "PubChem BioAssay AID540275", "about": "(National Center for Advancing Translational Sciences (NCATS), 2011)", "note": "The whole screen tested about 320,000 compounds, of which about 620 (0.19%) were called active. The shares of active, inactive and inconclusive entries below differ from those in the screen. Rule as the data show it: active = activation above about 80%; inconclusive = between about 30% and that limit; inactive = weaker than that."}
{"biological_target": "Transient receptor potential cation channel subfamily V member 1 (Homo sapiens) (UniProt Q8NER1)", "assay": "HTS Assay for Compounds that Act as Agonists of the Vanilloid Receptor 1; also: 0% is about no effect", "conditions": "TRPV1-expressing cells, Fluo-8 calcium influx, agonist mode; at 8.33 µM, stronger effect = higher value", "summary_of_the_method": "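Cells expressing TRPV1 were dye-loaded with Fluo-8 and read kinetically: 10 s baseline, 3 min after compound (agonist portion), then 2 min after EC20 capsaicin (allosteric enhancer portion). Calcium-bound dye fluorescence at 480/520 nm.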"}
{"molecule": "CCN(CC)c1ccc(/C=C(\\C#N)C(=O)NCc2ccccc2)cc1", "activation": "inactive: 14.2%"}
{"molecule": "COC(=O)c1ccccc1NC1CC(=O)N(c2c(C)cccc2C)C1=O", "note": "(centres undefined)", "activation": "inactive: 6.68%"}
{"molecule": "Cc1cc(C)c(C#N)c(N2CCN(c3ccc(F)cc3)CC2)n1", "activation": "inconclusive: 36%"}
{"molecule": "CC1CCCN(S(=O)(=O)c2cc(Cl)ccc2Cl)C1", "note": "(centres undefined)", "activation": "inconclusive: 41.1%"}
{"molecule": "C/C(=N\\NC(=S)NC1CCCCC1)c1cccc(C(F)(F)F)c1", "activation": "inconclusive: 74.3%"}
{"molecule": "Cc1c(C(=O)N2CCN(Cc3ccccc3)CC2)oc2c1C(=O)CC(C)(C)C2", "activation": "inconclusive: 31%"}
{"molecule": "CN1c2ccccc2Oc2nnc(N3CCN(Cc4ccccc4)CC3)cc21", "activation": "inconclusive: 32.9%"}
{"molecule": "CCOC(=O)C(=O)N1CCC(Cc2ccccc2)CC1", "activation": "inconclusive: 39.4%"}
{"molecule": "CCCc1c(C(=O)N/N=C/c2ccco2)nnn1-c1nonc1N", "activation": "inconclusive: 34.2%"}
{"molecule": "CC(C)OC(=O)c1cc(NC(=O)C2C3CCC(O3)C2C(=O)O)cc(C(=O)OC(C)C)c1", "note": "(centres undefined)", "activation": "inconclusive: 37.5%"}
{"molecule": "O=C(Nc1ccc2c(c1)OCCO2)C1CCCN(c2ncccn2)C1", "note": "(centres undefined)", "activation": "inconclusive: 37%"}
{"molecule": "Cc1ccc(Nc2nc(N)nc(CSC(=S)N3CCOCC3)n2)cc1", "activation": "inconclusive: 68.1%"}
{"molecule": "Cc1ccc(NC(=O)C(CC(C)C)NC(=O)C2CCC(C)CC2)nc1", "note": "(centres undefined)", "activation": "inconclusive: 35.2%"}
{"molecule": "Cc1ccc(C(=O)Nc2ccc(N3CCOCC3)c3nonc23)cc1[N+](=O)[O-]", "activation": "inconclusive: 36.2%"}
{"molecule": "O=C(COC(=O)c1ccc(S(=O)(=O)N2CCCCC2)cc1)NCc1ccc(F)cc1", "activation": "inconclusive: 41.5%"}
{"molecule": "CS(=O)(=O)Oc1ccc2c(c1)O/C(=C\\c1cccc([N+](=O)[O-])c1)C2=O", "activation": "inconclusive: 31.2%"}
{"molecule": "Cc1cccc(COCC(CC(C)C)N2CCN(C(=O)c3ccc(C(F)(F)F)cc3)CCC2=O)c1", "note": "(centres undefined)", "activation": "inconclusive: 48.7%"}
{"molecule": "O=C(CSc1nnc(-c2ccccn2)n1Cc1ccccc1)N1CCOCC1", "activation": "inconclusive: 66%"}
{"molecule": "Cc1cccc(OCC(=O)Nc2cccc(O)c2)c1", "activation": "inconclusive: 32.6%"}
{"molecule": "O=C1C2C(c3ccccc3)CC=CC2[C@H](c2ccoc2)N1Cc1ccccc1", "note": "(some centres undefined)", "activation": "inconclusive: 41.2%"}
{"molecule": "COCCCNC(=O)Cc1c(C)c2c(cc(C)c3c(C(C)(C)C)coc32)oc1=O", "activation": "inconclusive: 54.4%"}
{"molecule": "NS(=O)(=O)c1ccc(NC(=O)c2cc(-c3cccs3)nc3ccccc23)cc1", "activation": "inconclusive: 57.4%"}
{"molecule": "COc1ccc(NC(=O)c2cccc(S(=O)(=O)N3CCOCC3)c2)cc1", "activation": "inconclusive: 68.9%"}
{"molecule": "CC(=O)c1cccc(NC(=O)CSCc2ccc(Br)cc2)c1", "activation": "inconclusive: 44.6%"}
{"molecule": "Cc1cc(Cl)ccc1OCCCC(=O)NO", "activation": "inconclusive: 41.7%"}
{"molecule": "Cc1ccccc1OCCCC(=O)Nc1ccccc1C(F)(F)F", "activation": "inconclusive: 30.7%"}
{"molecule": "Cc1cccc(C)c1NC(=O)COC(=O)c1c2c(nc3ccccc13)/C(=C\\c1ccc3c(c1)OCO3)CCC2", "activation": "inconclusive: 30.9%"}
{"molecule": "Cc1cccc(Nc2ncnc3c2cnn3C)c1", "activation": "inconclusive: 36.5%"}
{"molecule": "N=c1c(C(=O)NC2CCCCC2)cc2c(=O)n3ccccc3nc2n1Cc1ccccc1", "activation": "inconclusive: 42.1%"}
{"molecule": "Nc1cccc(-c2nc3ccc(C(=O)c4ccccc4)cc3[nH]2)c1", "activation": "inconclusive: 50.1%"}
{"molecule": "COc1ccccc1NC(=S)NCCSc1ccc(Cl)cc1", "activation": "inconclusive: 31.1%"}
{"molecule": "COC(=O)c1ccc(CN2[C@H](C(=O)OC)C[C@@]3(O)[C@H](O)[C@H](O)[C@H](O)C[C@@H]23)cc1", "activation": "inactive: -0.181%"}
{"molecule": "CCOc1cc(NC(=S)NCc2ccccc2)c(OCC)cc1NC(=O)C(C)C", "activation": "inconclusive: 65.5%"}
{"molecule": "CC(C)Cn1c(SC(C)C(=O)Nc2ccc3c(c2)OCCO3)nc2ccccc2c1=O", "note": "(centres undefined)", "activation": "inconclusive: 38%"}
{"molecule": "S=C(NCCc1ccccc1)N1CCCCC1", "activation": "inconclusive: 57.5%"}
{"molecule": "COc1ccc(OC)c(C2=C/C(=C/c3ccccn3)C(=O)O2)c1", "activation": "inconclusive: 39.6%"}
{"molecule": "O=C(CCC1CCCCC1)NCc1cccs1", "activation": "inconclusive: 43.8%"}
{"molecule": "CN(CCCC1CCCC1)C(=O)CCc1nnc(-c2ccccc2)o1", "activation": "inconclusive: 32.9%"}
{"molecule": "O=C(N/N=C/c1ccc(C(F)(F)F)cc1)c1ccncc1", "activation": "inconclusive: 52.9%"}
{"molecule": "O=[N+]([O-])c1cccnc1N1CCN(c2ccc(F)cc2)CC1", "activation": "inactive: 8.85%"}
{"molecule": "CC(OC(=O)CCC1CCCCC1)C(=O)Nc1ccc(S(N)(=O)=O)cc1", "note": "(centres undefined)", "activation": "inconclusive: 66.5%"}
{"molecule": "COc1ccc(C(=O)N2CCCC(Nc3ccc(C)c(C)c3)C2)cc1", "note": "(centres undefined)", "activation": "inconclusive: 40.3%"}
{"molecule": "Cc1nc2cc(-c3ccc(Cl)cc3)nn2c(NCCN(C)C)c1C", "activation": "inactive: 14.2%"}
{"molecule": "CC1(C)NC(=O)N(CC(O)CNC23CC4CC(CC(C4)C2)C3)C1=O", "note": "(centres undefined)", "activation": "inactive: -0.833%"}
{"molecule": "O=C(NCCCCc1ccccc1)c1cccc([N+](=O)[O-])c1", "activation": "inconclusive: 36.3%"}
{"molecule": "Cc1ccc(NC(=S)N2CCN(S(=O)(=O)c3ccc(F)cc3)CC2)cc1", "activation": "inconclusive: 46%"}
{"molecule": "Cc1ccc(Cn2c(NC(=O)c3ccco3)nc3ccccc32)cc1", "activation": "inconclusive: 30.3%"}
{"molecule": "COc1ccccc1NC(=O)c1nc(S(=O)(=O)Cc2ccccc2)ncc1Cl", "activation": "inactive: 2.06%"}
{"molecule": "CC1CCN(CC(=O)N2CCCc3c2c(=O)oc2ccc(OCc4ccccc4)cc32)CC1", "activation": "inconclusive: 36.8%"}
{"molecule": "CNC(=O)c1[nH]nc2c1CCc1cc(OC)ccc1-2", "activation": "inactive: 6.55%"}
{"molecule": "CSc1ccccc1OCc1cc(C(=O)N2CCC(c3ccncc3)CC2)no1", "activation": "inconclusive: 53.8%"}
{"molecule": "O=C(O)c1c(NC(=O)N2CCOCC2)sc2c1CCCC2", "activation": "inconclusive: 51.4%"}
{"molecule": "O=C(Nc1ccc2c(c1)OCO2)C1CCCN(c2nc3ccccc3s2)C1", "note": "(centres undefined)", "activation": "inconclusive: 60.5%"}
{"molecule": "CC(C)=C1C(=O)NN(c2ccc(F)c(Cl)c2)C1=O", "activation": "inactive: -3.83%"}
{"molecule": "O=C(NC(=S)Nc1ccccc1O)c1ccc(Cl)cc1Cl", "activation": "inactive: -0.666%"}
{"molecule": "O/N=C/C1=C(Cl)c2ccccc2CC1", "activation": "inactive: 1.43%"}
{"molecule": "O=C(Nc1ccc(-n2cccn2)cc1)C1CCCCN1Cc1cccc2c1OCO2", "note": "(centres undefined)", "activation": "inconclusive: 35.4%"}
{"molecule": "Cc1ccc(NC(=O)C2Oc3ccccc3OC2C)cc1", "note": "(centres undefined)", "activation": "inconclusive: 64.5%"}
{"molecule": "CC(C)(C)N(C(=O)Cn1nnc(-c2ccc(F)cc2)n1)C(C(=O)NC1CCCC1)c1ccncc1", "note": "(centres undefined)", "activation": "inconclusive: 43.1%"}
{"molecule": "COc1ccccc1/C=C/C(=O)NCc1cccnc1", "activation": "inactive: 5.37%"}
{"molecule": "CC(=O)c1cccc(OC(=O)c2cc(S(=O)(=O)N3CCOCC3)ccc2N2CCCC2)c1", "activation": "inactive: 0.311%"}
{"molecule": "O=C(Nc1nc2c(s1)CCc1ccccc1-2)c1ccco1", "activation": "inconclusive: 43.9%"}
{"molecule": "CCc1ccc(C(C)NC(=O)Cc2ccc(F)cc2)cc1", "note": "(centres undefined)", "activation": "inconclusive: 66.7%"}
{"molecule": "CCS(=O)(=O)N1CCN(C2CCC(C)CC2)CC1", "note": "(centres undefined)", "activation": "inactive: 5.34%"}
{"molecule": "COc1cc([N+](=O)[O-])ccc1NC(=O)NCC1CCN(Cc2ccc(Cl)cc2)CC1", "activation": "inconclusive: 37.7%"}
{"molecule": "CCCC(=O)N1CCN(c2ccc([N+](=O)[O-])c(NC(C)c3ccccc3)c2)CC1", "note": "(centres undefined)", "activation": "inconclusive: 71.7%"}
{"molecule": "CCOC(=O)c1[nH]c2ccc(OC)cc2c1NC(=O)c1cccc(OC)c1", "activation": "inconclusive: 53.9%"}
{"molecule": "CCOc1ccc(/C=C/C(=O)NCCc2ccc(OC)c(OC)c2)cc1", "activation": "inactive: 13.9%"}
{"molecule": "COc1ccc(CNC(=O)Nc2ccc(C)cc2)cc1", "activation": "inconclusive: 40.9%"}
{"molecule": "O=C(/C=C/c1ccc(Cl)cc1)N1CCN(Cc2ccccc2)CC1", "activation": "inconclusive: 76.1%"}
{"molecule": "COc1ccc(S(=O)(=O)N2CCC(C(=O)NCC3CCCO3)CC2)cc1C", "note": "(centres undefined)", "activation": "inactive: -0.323%"}
{"molecule": "Cc1c(C(=O)N2CCc3ccccc3C2)oc2ccc(S(=O)(=O)N3CCCCCC3)cc12", "activation": "inconclusive: 42.5%"}
{"molecule": "O=C(COc1ccccc1[N+](=O)[O-])Nc1cccc(Cl)c1N1CCOCC1", "activation": "inconclusive: 33.5%"}
{"molecule": "O=C(CCC(=O)c1ccc(F)cc1)Nc1cc(Cl)cc(Cl)c1", "activation": "inactive: 14.9%"}
{"molecule": "Cc1ccc2nc(NC(=O)c3ccc4ncsc4c3)sc2c1", "activation": "inconclusive: 70.9%"}
{"molecule": "O=C(Nc1ccc2c(c1)OCO2)c1ccc(CO)cc1", "activation": "inconclusive: 56.2%"}
{"molecule": "COc1ccc(CCNC(=O)c2cccc(S(=O)(=O)N3CCCCC3)c2)cc1", "activation": "inconclusive: 44.4%"}
{"molecule": "CCO[C@H]1OC(C(=O)N2CCN(Cc3ccc4c(c3)OCO4)CC2)=C[C@@H](C2CCCCC2)[C@@H]1CCCO", "activation": "inconclusive: 37.9%"}
{"molecule": "COc1ccc(CC(=O)OCC(=O)Nc2ccc3c(c2)OCCO3)cc1OC", "activation": "inconclusive: 40.3%"}
{"molecule": "O=C(Cc1ccccc1[N+](=O)[O-])N1CCc2ccccc2C1", "activation": "inactive: 10.2%"}
{"molecule": "COc1ccc(NC(=O)Nc2ccc(Cc3ccncc3)cc2)cc1OC", "activation": "inactive: -12.4%"}
{"molecule": "COc1ccccc1-c1c(C)nn2c(N3CCOCC3)cc(C)nc12", "activation": "inactive: 2.9%"}
{"molecule": "O=C(CSc1cccc[n+]1[O-])N1CCCCCC1", "activation": "inactive: 0.779%"}
{"molecule": "CCC(=O)c1ccc(OCC(O)Cn2cnc3ccccc32)cc1", "note": "(centres undefined)", "activation": "inactive: -0.213%"}
{"molecule": "COC(=O)c1ccc(NC(=O)C(=O)N2CCN(C(=S)NCCc3ccccc3)CC2)cc1", "activation": "inconclusive: 43.2%"}
{"molecule": "O=C(c1cc(COc2ccc(F)c(F)c2)on1)N1CCOCC1", "activation": "inconclusive: 52.4%"}
{"molecule": "Cc1cnc(NC(=O)c2cccc(S(=O)(=O)N3CCOCC3)c2)s1", "activation": "inconclusive: 70.1%"}
{"molecule": "O=C(Cn1nnc(-c2ccccc2)n1)N/N=C/c1cc([N+](=O)[O-])ccc1O", "activation": "inactive: 0.723%"}
{"molecule": "Cc1ccc(C(=O)Nc2ccc(C)c(S(=O)(=O)Nc3ccccc3Cl)c2)s1", "activation": "inconclusive: 43.8%"}
